According to patent US7714168B2 (priority 2005, dated 2010):
Like-named read-outs stand apart in the source and are kept apart here. Some of these results come from one statement about several compounds together.

Tests used:
Type in all cases: in vivo
Phytophthora infestans [1] = conditions: tomato (variety: Patio) seedlings, 200 ppm, sprayed on leaves and stems before inoculation, visual assessment after 1 + 4 days
Phytophthora infestans [2] = conditions: tomato (variety: Patio) seedlings, 500 ppm, sprayed on leaves and stems before inoculation, visual assessment after 1 + 4 days
Phytophthora infestans [3] = conditions: tomato (variety: Patio) seedlings, 200 ppm, irrigation treatment 20 ml per pot, inoculation 7 days later, visual assessment after 1 + 4 days

C#CCOc1c(OC)cc(C(=O)N[C@@H](C)C(C)(C)C)cc1OC [compound 34, N-((1S)-1,2,2-trimethylpropyl)-3,5-dimethoxy-4-(2-propynyloxy)benzamide]
≤ 30%: lesion areas as compared with the lesion areas in seedlings without treatment (Phytophthora infestans [1]) | lesion areas as compared with the lesion areas in seedlings without the treatment (Phytophthora infestans [2]) | lesion areas as compared with the lesion areas in seedlings without treatment (Phytophthora infestans [3])

C#CCOc1ccc(C(=O)NC(C)C(C)C)cc1OC (stereo not drawn) [compound 9, N-(1,2-diemthylpropyl)-3-methoxy-4-(2-propynyloxy)benzamide]
≤ 30%: lesion areas as compared with the lesion areas in seedlings without treatment (Phytophthora infestans [1]) | lesion areas as compared with the lesion areas in seedlings without the treatment (Phytophthora infestans [2]) | lesion areas as compared with the lesion areas in seedlings without treatment (Phytophthora infestans [3])

C#CCOc1c(OC)cc(C(=O)NCC(C)(C)C)cc1OC [compound 20, N-(2,2-dimethylpropyl)-4-(2-propynyloxy)-3,5-dimethoxybenzamide]
≤ 30%: lesion areas as compared with the lesion areas in seedlings without treatment (Phytophthora infestans [1]) | lesion areas as compared with the lesion areas in seedlings without the treatment (Phytophthora infestans [2]) | lesion areas as compared with the lesion areas in seedlings without treatment (Phytophthora infestans [3])

C#CCOc1ccc(C(=O)N[C@@H](C)C(C)C)cc1OC [compound 15, N-((1S)-1,2-dimethylpropyl)-4-(2-propynyloxy)-3-methoxybenzamide]
≤ 30%: lesion areas as compared with the lesion areas in seedlings without treatment (Phytophthora infestans [1]) | lesion areas as compared with the lesion areas in seedlings without the treatment (Phytophthora infestans [2]) | lesion areas as compared with the lesion areas in seedlings without treatment (Phytophthora infestans [3])

C#CCOc1c(F)cc(C(=O)N[C@@H](C)C(C)C)cc1OC [compound 44, N-((1S)-1,2-dimethylpropyl)-3-fluoro-5-methoxy-4-(2-propynyloxy)benzamide]
≤ 30%: lesion areas as compared with the lesion areas in seedlings without treatment (Phytophthora infestans [1]) | lesion areas as compared with the lesion areas in seedlings without the treatment (Phytophthora infestans [2]) | lesion areas as compared with the lesion areas in seedlings without treatment (Phytophthora infestans [3])

C#CCOc1ccc(C(=O)N[C@@H](C)C(C)(C)C)cc1F [compound 25, N-((1S)-1,2,2-trimethylpropyl)-3-fluoro-4-(2-propynyloxy)benzamide]
≤ 30%: lesion areas as compared with the lesion areas in seedlings without treatment (Phytophthora infestans [1]) | lesion areas as compared with the lesion areas in seedlings without the treatment (Phytophthora infestans [2]) | lesion areas as compared with the lesion areas in seedlings without treatment (Phytophthora infestans [3])

C#CCOc1ccc(C(=S)N[C@@H](C)C(C)C)cc1OC [compound 35, N-((1S)-1,2-diemthylpropyl)-3-methoxy-4-(2-propynyloxy)benzthioamide]
≤ 30%: lesion areas as compared with the lesion areas in seedlings without treatment (Phytophthora infestans [1]) | lesion areas as compared with the lesion areas in seedlings without the treatment (Phytophthora infestans [2]) | lesion areas as compared with the lesion areas in seedlings without treatment (Phytophthora infestans [3])

C#CCOc1ccc(C(=O)NC(C)C(C)(C)C)cc1OC (stereo not drawn) [compound 14, N-(1,2,2-trimethylpropyl)-4-(2-propynyloxy)-3-methoxybenzamide]
≤ 30%: lesion areas as compared with the lesion areas in seedlings without treatment (Phytophthora infestans [1]) | lesion areas as compared with the lesion areas in seedlings without the treatment (Phytophthora infestans [2]) | lesion areas as compared with the lesion areas in seedlings without treatment (Phytophthora infestans [3])

C#CCOc1ccc(C(=O)N[C@H](C)C(C)C)cc1OC [compound 16, N-((1R)-1,2-dimethylpropyl)-4-(2-propynyloxy)-3-methoxybenzamide]
≤ 30%: lesion areas as compared with the lesion areas in seedlings without treatment (Phytophthora infestans [1]) | lesion areas as compared with the lesion areas in seedlings without the treatment (Phytophthora infestans [2]) | lesion areas as compared with the lesion areas in seedlings without treatment (Phytophthora infestans [3])

C#CCOc1ccc(C(=O)N[C@@H](C)C(C)(C)C)cc1OC [compound 18, N-((1S)-1,2,2-trimethylpropyl)-4-(2-propynyloxy)-3-methoxybenzamide]
≤ 30%: lesion areas as compared with the lesion areas in seedlings without treatment (Phytophthora infestans [1]) | lesion areas as compared with the lesion areas in seedlings without the treatment (Phytophthora infestans [2]) | lesion areas as compared with the lesion areas in seedlings without treatment (Phytophthora infestans [3])

C#CCOc1ccc(C(=O)NC(C)C(C)CC)cc1OC (stereo not drawn) [compound 13, N-(1,2-dimethylbutyl)-4-(2-propynyloxy)-3-methoxybenzamide]
≤ 30%: lesion areas as compared with the lesion areas in seedlings without treatment (Phytophthora infestans [1]) | lesion areas as compared with the lesion areas in seedlings without the treatment (Phytophthora infestans [2]) | lesion areas as compared with the lesion areas in seedlings without treatment (Phytophthora infestans [3])

C#CCOc1ccc(C(=O)NC(C)(C)C(C)C)cc1OC [compound 11, N-(1,1,2-trimethylpropyl)-4-(2-propynyloxy)-3-methoxybenzamide]
≤ 30%: lesion areas as compared with the lesion areas in seedlings without treatment (Phytophthora infestans [1]) | lesion areas as compared with the lesion areas in seedlings without the treatment (Phytophthora infestans [2]) | lesion areas as compared with the lesion areas in seedlings without treatment (Phytophthora infestans [3])
